In the assay the test system is CD2F1 mice, nontumored, toxicity/survival. In words: NCI In Vivo Anticancer Drug Screen. Data for tumor model Nontumored Animals (Toxicity Test) in CD2F1 (CDF1) mice.
[1] abbreviates: dose: 1.0 mg/kg/injection, schedule: Q01DX001 (ip), vehicle: Klucel (hydroxypropylcellulose) (HPC).
Where [2] appears, read: dose: 10.0 mg/kg/injection, schedule: Q01DX001 (ip), vehicle: Klucel (hydroxypropylcellulose) (HPC).
Where [3] appears, read: dose: 100.0 mg/kg/injection, schedule: Q01DX001 (ip), vehicle: Klucel (hydroxypropylcellulose) (HPC).

Structures are written as SMILES. Values are animals surviving of animals treated; these mice carried no tumour. Survivors were counted at the toxicity check, usually on the fifth day, unless a day is given; later deaths do not show. Schedule codes are those of the source, taken here to give the interval after Q, in days (D) or hours (H), and the number of doses after X. Some doses were run more than once; their values stand side by side, smallest first. Starred links: 1 amine or outer side, 2 acyl side, 3 side chain; linkers in the order of their positions; H or OH if unused. Positions of bridges follow the written chain, without caps; N, C: chain ends. Non-standard residues stand in square brackets, D forms with d. Residues, ends and D or L forms follow the SMILES beside them. Chains are numbered I, II in the order given. Actinocin(9to1) = Cc1c2oc3c(C)ccc(C(=O)[*:1])c3nc-2c(C(=O)[*:2])c(N)c1=O; aThr = C[C@H](O)[C@H](N)C(=O)O; NMeV = CN[C@H](C(=O)O)C(C)C; Sar = CNCC(=O)O

`O=c1[nH]cc(F)c(=O)[nH]1`: the survivor count (dose: 1.88 mg/kg/injection, schedule: Q04DX003 (ip), vehicle: saline) is 8 of 8; the survivor count (dose: 3.75 mg/kg/injection, schedule: Q04DX003 (ip), vehicle: saline) is 8 of 8; the survivor count (dose: 5.0 mg/kg/injection, schedule: Q01DX006 (ip), vehicle: saline) is on record as 10 of 10; the survivor count (dose: 5.0 mg/kg/injection, schedule: Q01DX009 (ip), vehicle: saline) is 10 of 10 and 4 of 4; the survivor count (dose: 6.25 mg/kg/injection, schedule: Q01DX009 (ip), vehicle: saline) was 8 of 8; the survivor count (dose: 7.5 mg/kg/injection, schedule: Q04DX003 (ip), vehicle: saline) is listed as 8 of 8. The survivor count by setting is: (dose: 10.0 mg/kg/injection, schedule: Q01DX006 (ip), vehicle: saline) 10 of 10; (dose: 10.0 mg/kg/injection, schedule: Q01DX009 (ip), vehicle: saline) 10 of 10 and 4 of 4; (dose: 12.5 mg/kg/injection, schedule: Q01DX006 (ip), vehicle: saline) 8 of 8; (dose: 12.5 mg/kg/injection, schedule: Q01DX009 (ip), vehicle: saline) 8 of 8; (dose: 12.5 mg/kg/injection, schedule: Q02DX005 (ip), vehicle: saline) 8 of 8; (dose: 13.2 mg/kg/injection, schedule: Q01DX009 (ip), vehicle: saline) 6 of 6 and 8 of 8. In addition, the survivor count is 10 of 10 (dose: 13.3 mg/kg/injection, schedule: Q01DX009 (ip), vehicle: saline); 10 of 10 (dose: 15.0 mg/kg/injection, schedule: Q01DX009 (ip), vehicle: saline); 4 of 4 and 8 of 8 (dose: 15.0 mg/kg/injection, schedule: Q04DX003 (ip), vehicle: saline); 5 of 5 (dose: 17.8 mg/kg/injection, schedule: Q04DX003 (ip), vehicle: saline); 10 of 10 (dose: 20.0 mg/kg/injection, schedule: Q01DX006 (ip), vehicle: saline); 10 of 10, 4 of 4, 6 of 6, 8 of 8 (dose: 20.0 mg/kg/injection, schedule: Q01DX009 (ip), vehicle: saline). Besides, the survivor count (dose: 25.0 mg/kg/injection, schedule: Q01DX006 (ip), vehicle: saline) is 8 of 8; the survivor count (dose: 25.0 mg/kg/injection, schedule: Q01DX009 (ip), vehicle: saline) was 10 of 10 and 8 of 8; the survivor count (dose: 25.0 mg/kg/injection, schedule: Q02DX005 (ip), vehicle: saline) was 8 of 8; the survivor count (dose: 25.0 mg/kg/injection, schedule: Q04DX003 (ip), vehicle: saline) is reported as 8 of 8; the survivor count (dose: 26.7 mg/kg/injection, schedule: Q04DX003 (ip), vehicle: saline) was 5 of 5; the survivor count (dose: 27.0 mg/kg/injection, schedule: Q01DX009 (ip), vehicle: saline) is 6 of 6 and 8 of 8. In addition, the survivor count is, setting by setting: (dose: 29.6 mg/kg/injection, schedule: Q04DX003 (ip), vehicle: saline) 5 of 5; (dose: 30.0 mg/kg/injection, schedule: Q01DX009 (ip), vehicle: saline) 9 of 10 and 10 of 10; (dose: 30.0 mg/kg/injection, schedule: Q04DX003 (ip), vehicle: saline) 4 of 4 and 8 of 8; (dose: 40.0 mg/kg/injection, schedule: Q01DX006 (ip), vehicle: saline) 10 of 10; (dose: 40.0 mg/kg/injection, schedule: Q01DX009 (ip), vehicle: saline) 4 of 4; (dose: 40.0 mg/kg/injection, schedule: Q04DX003 (ip), vehicle: saline) 4 of 4, 5 of 5, 8 of 8. The survivor count is, setting by setting: (dose: 44.4 mg/kg/injection, schedule: Q04DX003 (ip), vehicle: saline) 5 of 5; (dose: 50.0 mg/kg/injection, schedule: Q01DX001 (ip), vehicle: saline) 8 of 8; (dose: 50.0 mg/kg/injection, schedule: Q01DX006 (ip), vehicle: saline) 8 of 8; (dose: 50.0 mg/kg/injection, schedule: Q01DX009 (ip), vehicle: saline) 8 of 8; (dose: 50.0 mg/kg/injection, schedule: Q02DX005 (ip), vehicle: saline) 8 of 8; (dose: 50.0 mg/kg/injection, schedule: Q04DX003 (ip), vehicle: saline) 8 of 8. Moreover, the survivor count reads like this: (dose: 60.0 mg/kg/injection, schedule: Q04DX003 (ip), vehicle: saline) 4 of 4, 5 of 5, 8 of 8; (dose: 67.0 mg/kg/injection, schedule: Q04DX003 (ip), vehicle: saline) 5 of 5; (dose: 80.0 mg/kg/injection, schedule: Q04DX003 (ip), vehicle: saline) 4 of 4 and 8 of 8; (dose: 90.0 mg/kg/injection, schedule: Q04DX003 (ip), vehicle: saline) 4 of 4 and 5 of 5; (dose: 100.0 mg/kg/injection, schedule: Q01DX001 (ip), vehicle: saline) 8 of 8; (dose: 100.0 mg/kg/injection, schedule: Q01DX006 (ip), vehicle: saline) 8 of 8. In addition, the survivor count is 8 of 8 (dose: 100.0 mg/kg/injection, schedule: Q02DX005 (ip), vehicle: saline); 5 of 5 and 8 of 8 (dose: 100.0 mg/kg/injection, schedule: Q04DX003 (ip), vehicle: saline); 4 of 4 and 8 of 8 (dose: 120.0 mg/kg/injection, schedule: Q04DX003 (ip), vehicle: saline); 10 of 10 (dose: 150.0 mg/kg/injection, schedule: Q01DX001 (ip), vehicle: saline); 5 of 5 (dose: 150.0 mg/kg/injection, schedule: Q04DX003 (ip), vehicle: saline); 10 of 10 (dose: 175.0 mg/kg/injection, schedule: Q01DX001 (ip), vehicle: saline). The survivor count (dose: 200.0 mg/kg/injection, schedule: Q01DX001 (ip), vehicle: saline) is 10 of 10 and 8 of 8; the survivor count (dose: 200.0 mg/kg/injection, schedule: Q04DX003 (ip), vehicle: saline) is listed as 8 of 8; the survivor count (dose: 225.0 mg/kg/injection, schedule: Q01DX001 (ip), vehicle: saline) was 10 of 10 and 9 of 9; the survivor count (dose: 400.0 mg/kg/injection, schedule: Q01DX001 (ip), vehicle: saline) is listed as 8 of 8.

For the compound `O=c1c2ccccc2c(-c2ccc(N(CCCl)CCCl)cc2)cn1CCCl`, the survivor count reads like this: under setting [1], 2 of 2; under setting [2], 2 of 2; under setting [3], 2 of 2.

For the compound `N#Cc1ccc([N+](=O)[O-])n1CCO`, the survivor count is, setting by setting: (dose: 328.0 mg/kg/injection, schedule: Q01DX001 (ip), vehicle: saline with Tween-80) 3 of 3; (dose: 410.0 mg/kg/injection, schedule: Q01DX001 (ip), vehicle: saline with Tween-80) 2 of 3; (dose: 512.0 mg/kg/injection, schedule: Q01DX001 (ip), vehicle: saline with Tween-80) 1 of 3; (dose: 640.0 mg/kg/injection, schedule: Q01DX001 (ip), vehicle: saline with Tween-80) 0 of 3; (dose: 800.0 mg/kg/injection, schedule: Q01DX001 (ip), vehicle: saline with Tween-80) 0 of 3; (dose: 1000.0 mg/kg/injection, schedule: Q01DX001 (ip), vehicle: saline with Tween-80) 0 of 3.

Consider `Cc1nc(N)nc(N)c1-c1ccc(Cl)c(Cl)c1`, for which the survivor count reads like this: (dose: 2.0 mg/kg/injection, schedule: Q01DX009 (sc), vehicle: other) 10 of 10; (dose: 4.0 mg/kg/injection, schedule: Q01DX009 (sc), vehicle: other) 10 of 10; (dose: 6.0 mg/kg/injection, schedule: Q01DX009 (sc), vehicle: other) 10 of 10; (dose: 8.0 mg/kg/injection, schedule: Q01DX009 (sc), vehicle: other) 9 of 9; (dose: 10.0 mg/kg/injection, schedule: Q01DX009 (sc), vehicle: other) 10 of 10.

For `Nc1nc(N)c2cc(CCc3ccc(C(=O)NC(CCC(=O)O)C(=O)O)cc3)ccc2n1` (configuration not stated), the survivor count is, setting by setting: under setting [1], 2 of 2; under setting [2], 2 of 2; under setting [3], 0 of 2.

With `Cc1c2oc3c(C)ccc(C(=O)N[C@@H]4C(=O)N[C@H](C(C)C)C(=O)N5CCC[C@H]5C(=O)N(C)CC(=O)N(C)[C@@H](C(C)C)C(=O)O[C@H]4C)c3nc-2c(C(=O)N[C@@H]2C(=O)N[C@H](C(C)C)C(=O)N3CCC[C@H]3C(=O)N(C)CC(=O)N(C)[C@@H](C(C)C)C(=O)O[C@H]2C)c(N)c1=O` (I: [aThr][dV]P[Sar][NMeV] / II: [aThr][dV]P[Sar][NMeV]; ester I:1-I:C, II:1-II:C; linker I:N-II:N via Actinocin(9to1)), the survivor count is on record as 4 of 4 (dose: 0.12 mg/kg/injection, schedule: Q04DX003 (ip), vehicle: saline); 4 of 4 (dose: 0.2 mg/kg/injection, schedule: Q04DX003 (ip), vehicle: saline); 4 of 4 (dose: 0.33 mg/kg/injection, schedule: Q04DX003 (ip), vehicle: saline).
